Variants at the floor of the assay are shown more often than the library holds them.
B1: tRNA (parent)
chain: GUUCCGUUGGCGUAAUGGUAACGCGUCUCCCUCCUAAGGAGAAGACUGCGGGUUCGAGUCCCGUACGGAACG

Variants of: B1
Experiment: yeast fitness relative to wild type (ratio to wild type); higher = fitter; tRNA-Arg(CCU), competitive growth, 37 C, YPD
Method in brief: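 Changes in genotype frequencies gave Darwinian fitness relative to wild type. Frequencies were read by 100-nucleotide paired-end sequencing of gene amplicons before and after pooled Saccharomyces cerevisiae strains, carrying tRNA-Arg(CCU) gene variants at the native locus, were competed in YPD at 37°C for 24 hours in six replicates. A genotype was kept only with ≥ 100 starting reads, and estimates < 0.5 were set to 0.5.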

Variant | yeast fitness
C5G A65U C66G | ≤ 0.5
C11G G18A G44U A57U | ≤ 0.5
C22G C24A G44C G51A G58C U59A | ≤ 0.5
U3C G9C C11U C30G A43C A69U | ≤ 0.5
C5G C29G G52A | ≤ 0.5
C33G U54A U59A G67A | ≤ 0.5
C4U G9A C22G A42U U64A | ≤ 0.5
G25C C34G C61U | ≤ 0.5
C4U U13C A14G | 0.587
C5G G23A C60U C62G | ≤ 0.5
C33G A57U U59C | ≤ 0.5
C4G A40U A45U G51C G56C | ≤ 0.5
A14U A20C C22G G25C C27A A37U | ≤ 0.5
C5U G48A U54G G67C | ≤ 0.5
C4G C11U U19A U32A A37U U64A | ≤ 0.5
C11U G38U A40U G50C G58C U59A | ≤ 0.5
C22U C49U U54G C55G G67A A70G | ≤ 0.5
U8C A36C A37G C49A | ≤ 0.5
G41A C55U U59A A70U | ≤ 0.5
C4U U7G C11U C61G | ≤ 0.5
A21G C29G C62G C66G | ≤ 0.5

Variant | yeast fitness
C5U A14U U32A U54C C55U | ≤ 0.5
A14U A21G U28A C55G | ≤ 0.5
C29U C30U A36U | ≤ 0.5
A15U A20G G41C | ≤ 0.5
G6A C11G A20G U28C | ≤ 0.5
C4A C31A G52C A65U | ≤ 0.5
C31U A45C U47C C61A C62U A65U A69C | ≤ 0.5
U28C A42C A43C C55G A57G | ≤ 0.5
C4U U7C C27G | ≤ 0.5
A14G C24G C31U G52C | ≤ 0.5
C4U U16A A37C G48C | ≤ 0.5
A37G A57U | 0.55
G9A C34A A40G A65C | ≤ 0.5
U28A C31U A65U | 0.546
C4G A36G | 0.939
C4G A40G C55U | ≤ 0.5
U19A C22G C34U A42G A43G G51A A70U | ≤ 0.5
G9C C24U C30G G63C | ≤ 0.5
G6A U13G G44A C46A G52A C66U | ≤ 0.5
U7A C22A A57U | ≤ 0.5
C4G A21C C49G | ≤ 0.5

Variant | yeast fitness
A21G U53A U54C C61G | 0.718
A15G G44C A65C | ≤ 0.5
C11U C29U G58U C61U | ≤ 0.5
G10A A20U U35C G48C C60A G63A | ≤ 0.5
C5A U7A A21U | ≤ 0.5
U2G C11G A20G C24U C31G G58C C66G | ≤ 0.5
U7A G48A U59C G63A | ≤ 0.5
U7G C24U U54G A65C | ≤ 0.5
A20C C27G G41C | ≤ 0.5
G51C U54A | ≤ 0.5
U8A A14G G18C C61A | ≤ 0.5
G56C C60A C62G | ≤ 0.5
C5U U16A C34A U64C | ≤ 0.5
C33A C61U C62G | ≤ 0.5
U26C U35C A37U U54G G63C | ≤ 0.5
C29U A57C | 0.611
A14C U28C A45U U47C A70C | ≤ 0.5
U3C A40G C46A A69C | 0.706
C4A A20C A42C | ≤ 0.5
A15G A21G U54G C55U | ≤ 0.5
A40U A42C C55U A70U | ≤ 0.5

Variant | yeast fitness
C4A C30G G50A | ≤ 0.5
G25A C31U C34U A57C | ≤ 0.5
G10C A15G G18A U35A G44A | ≤ 0.5
U3A G9A U19A G50A C55A C66A | ≤ 0.5
U32G G56A G63C | ≤ 0.5
A20G G44A | 0.962
U8C C31G G51A G68C | ≤ 0.5
C5U C55G A69U | ≤ 0.5
U7G G10C C33G C34G C62G | ≤ 0.5
A36C A37G | 0.611
C4G A14C A20G G68A | ≤ 0.5
U16C C31U G52A | ≤ 0.5
U7C U32C C33G A70G | ≤ 0.5
G17C U35A G39A C55G C60U G67C | ≤ 0.5
U19C U32C | 0.926
C5G C34A U53A | ≤ 0.5
C11A C22A C29G | 0.545
C30A A42U C49U U59C A69C | 0.557
U32A C34G C55G U59C C60U G67U | ≤ 0.5
A20G C34U | 0.777
G6A A20G C61A | ≤ 0.5

— the RNAGym collection of RNA variant scans (doi:10.1126/science.aae0568)
